The other results are listed elsewhere or left out.
target: T1, OsSMF1 (Oryza sativa, UniProt Q6ZLB0 1-436); assay: protein-binding microarray (RPBM); PBS, 2% BSA, 51.3 ng/ul salmon testes DNA, 50 uM zinc acetate, 200 nM TF, 25 C, 1 h; high values mean tight binding; conditions: protein: recombinant; tags: N-terminal polyhistidine and DsRed monomer fusion (pET32a); chain copies: 2; label: CyDye5-dUTP incorporated in the synthesized complementary strand; 3' TTTTT single-stranded linker to array surface; dsDNA, one strand shown
T1 sequence: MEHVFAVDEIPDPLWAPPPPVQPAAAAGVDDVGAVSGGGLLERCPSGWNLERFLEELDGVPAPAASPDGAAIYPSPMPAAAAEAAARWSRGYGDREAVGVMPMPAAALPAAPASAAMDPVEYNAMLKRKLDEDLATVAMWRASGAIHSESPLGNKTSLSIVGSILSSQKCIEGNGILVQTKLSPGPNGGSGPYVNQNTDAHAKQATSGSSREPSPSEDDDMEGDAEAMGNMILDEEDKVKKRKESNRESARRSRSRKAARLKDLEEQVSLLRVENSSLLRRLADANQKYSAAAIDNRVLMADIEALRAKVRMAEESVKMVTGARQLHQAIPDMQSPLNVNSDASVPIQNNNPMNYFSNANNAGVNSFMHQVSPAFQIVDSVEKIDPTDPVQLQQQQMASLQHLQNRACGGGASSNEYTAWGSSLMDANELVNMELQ
In short: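 Transcription factors, each fused N-terminally to a polyhistidine tag and DsRed, were expressed in E. coli BL21-CodonPlus and purified on Ni–NTA. A custom Agilent array was made double-stranded by primer extension with Cy5-dUTP and blocked with 2% BSA. It was incubated with 200 nM protein in PBS, 2% BSA, salmon testes DNA and 50 µM zinc acetate at 25 °C for 1 h, then washed. The binding signal is per-feature fluorescence intensity (arbitrary units) read on an Axon 4000B scanner.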

For “CACACCTGAACGCCGGATAAAAGTGAACCCTGTTTTGTGCCGGAGTCACCTAGTGCAG”, which binding signal is on record?
The binding signal was 3460 fluorescence intensity (a.u.).

“CCCTCCACCTTGCAACCTCACGCACTGATCCTACTCGGATCGGAGTCACCTAGTGCAG” was tested. Which binding signal did it give?
The binding signal was 3190 fluorescence intensity (a.u.).

“CAAATATATTATCAAAATATATTCAATGCTAAATTTAATGCGGAGTCACCTAGTGCAG” was tested. Which binding signal did it give?
Its binding signal is 5300 fluorescence intensity (a.u.).

Which binding signal does the source give for “ACTACAGCCAAGTGCGTGACGAGGCGTTCGTCACCGTGTGCGGAGTCACCTAGTGCAG” here?
The binding signal was 4720 fluorescence intensity (a.u.).

Which binding signal does the source give for “AGATTTGGAGTATAAATAAACAGAGAGCGATGGAGCCGGTCGGAGTCACCTAGTGCAG” here?
Its binding signal is 3340 fluorescence intensity (a.u.).

“TCATGACACTTCGCGGTGGGTTGCGCCTCCACGCACGCACCGGAGTCACCTAGTGCAG” was tested. Which binding signal did it give?
The binding signal was 24600 fluorescence intensity (a.u.).

Which binding signal does the source give for “TCCTCCCTCCCTCCCGCCGCGTCCCGCCACTCCCGGCTGACGGAGTCACCTAGTGCAG” here?
Its binding signal is 3190 fluorescence intensity (a.u.).

“ACGACAGTAGAGCTTAGACCAGCAAACCAATCATGCATCACGGAGTCACCTAGTGCAG” was tested. Which binding signal did it give?
Its binding signal is 30600 fluorescence intensity (a.u.).

Which binding signal does the source give for “CCCAGTTCCATTCCGAGTTTATGTGTTCGTCACCATCACCCGGAGTCACCTAGTGCAG” here?
Its binding signal is 3540 fluorescence intensity (a.u.).

For “CTTGTTCAGAATGATGCCACTTTAAATCATATCACTTTTGCGGAGTCACCTAGTGCAG”, which binding signal is on record?
The binding signal was 3780 fluorescence intensity (a.u.).

How did the binding signal turn out when “GGATGGCGTCTCCTGCGACGCCATCACCGGCCGCGTCACCCGGAGTCACCTAGTGCAG” was run?
Its binding signal is 17400 fluorescence intensity (a.u.).

With “ACACTTGCTTTCAACACGTTAGTTCTTCGTCAACGGAGCTCGGAGTCACCTAGTGCAG” as the sequence, how does the binding signal read?
The binding signal was 3820 fluorescence intensity (a.u.).

How did the binding signal turn out when “AAAACCAATTACACAGTTTGCGTGTAAATTGCGAGACGAACGGAGTCACCTAGTGCAG” was run?
The binding signal was 3580 fluorescence intensity (a.u.).

For “CTCCCTTCTCCACGCACGCACATCATCATTATTGGGAGGCCGGAGTCACCTAGTGCAG”, which binding signal is on record?
The binding signal was 5520 fluorescence intensity (a.u.).

How did the binding signal turn out when “CCCTAGCCGCCAAACCTTGCACGAAGGGAGAAGGCACGCCCGGAGTCACCTAGTGCAG” was run?
The binding signal was 24800 fluorescence intensity (a.u.).

How did the binding signal turn out when “CCCACATCCGGGCCCACCTGACAGTGACCCAACACCCAATCGGAGTCACCTAGTGCAG” was run?
Its binding signal is 3690 fluorescence intensity (a.u.).

For “GGGCGGCTATGGCGACGACGACGACGACCGCATCTCTCTCCGGAGTCACCTAGTGCAG”, which binding signal is on record?
The binding signal was 3290 fluorescence intensity (a.u.).

Which binding signal does the source give for “GCCCCACCCATACCCAAGCTTCCCGCTAATGTAGGCTCGACGGAGTCACCTAGTGCAG” here?
The binding signal was 37800 fluorescence intensity (a.u.).

“TTCAGCCATCTTCTTCATCTGCGACAACTCCCCATCACTGCGGAGTCACCTAGTGCAG” was tested. Which binding signal did it give?
The binding signal was 3450 fluorescence intensity (a.u.).

With “GCCAGCCGGCATGTCGTCGTTGTCATCCACTTGCCAGCAACGGAGTCACCTAGTGCAG” as the sequence, how does the binding signal read?
The binding signal was 4640 fluorescence intensity (a.u.).

Which binding signal does the source give for “TACGCGGGAACTTCTGGCCCTGCATTGGTTCTAATTCATGCGGAGTCACCTAGTGCAG” here?
Its binding signal is 7110 fluorescence intensity (a.u.).

How did the binding signal turn out when “TACTAGGATTGACCAAGCTTCGGTATCTCAAGCTCAATAACGGAGTCACCTAGTGCAG” was run?
The binding signal was 34000 fluorescence intensity (a.u.).

With “TGTAGTGCGCGCTGTACTGTTCCCACGTCGCGTCGAGGCACGGAGTCACCTAGTGCAG” as the sequence, how does the binding signal read?
The binding signal was 3300 fluorescence intensity (a.u.).

For “TTACGCAGAGAAACTAATCCACATCAACACACCATCACTCCGGAGTCACCTAGTGCAG”, which binding signal is on record?
The binding signal was 3970 fluorescence intensity (a.u.).

For “CGGTGCCATTGGCTGGCCCATCATCGTACCAGCCAGTCCACGGAGTCACCTAGTGCAG”, which binding signal is on record?
The binding signal was 3170 fluorescence intensity (a.u.).

Which binding signal does the source give for “TCATTTAAAATATGCTGCCACGTATAAAATCGAACTAAAGCGGAGTCACCTAGTGCAG” here?
Its binding signal is 8250 fluorescence intensity (a.u.).

“TTTAACAGACGTTAATCATGCATCCACCAATGGCTACGGACGGAGTCACCTAGTGCAG” was tested. Which binding signal did it give?
The binding signal was 3250 fluorescence intensity (a.u.).

How did the binding signal turn out when “CGGGAGAGAGATCAGATGCGGCATGGCGTGGCCGTGGCGTCGGAGTCACCTAGTGCAG” was run?
Its binding signal is 3380 fluorescence intensity (a.u.).

“ATCCTTCCAGGCTTTCCAGCCCACCGCTCCACCGATCTCGCGGAGTCACCTAGTGCAG” was tested. Which binding signal did it give?
Its binding signal is 3190 fluorescence intensity (a.u.).

With “AGAGCTTGTGTGGTGGTGGGGCATCAGTGTGTCAGTTGTGCGGAGTCACCTAGTGCAG” as the sequence, how does the binding signal read?
The binding signal was 3970 fluorescence intensity (a.u.).

“CATTTGCCATATCGGCTCAATCAAACTCTGACTTTGTTTCCGGAGTCACCTAGTGCAG” was tested. Which binding signal did it give?
Its binding signal is 3180 fluorescence intensity (a.u.).

Which binding signal does the source give for “CTAGTAACCAATACAATCACAAGCTACCTGAACGGTTTCTCGGAGTCACCTAGTGCAG” here?
Its binding signal is 4030 fluorescence intensity (a.u.).

For “TGTTGGTTCGCCGTGGTGGCTGACAGGGATCCGGGTGAAGCGGAGTCACCTAGTGCAG”, which binding signal is on record?
Its binding signal is 3670 fluorescence intensity (a.u.).

Which binding signal does the source give for “ATGGTTTGACGCAGCCCCGTCCTGTTGACTCACCTGACCGCGGAGTCACCTAGTGCAG” here?
Its binding signal is 5590 fluorescence intensity (a.u.).

With “AACAACGATTATGTGTTTGATCACCCGCCCACATCATGCGCGGAGTCACCTAGTGCAG” as the sequence, how does the binding signal read?
The binding signal was 4230 fluorescence intensity (a.u.).

Which binding signal does the source give for “CGTCGGCGAAGAGAGGAGATAGAGGTGGAGGAAGTGGGTTCGGAGTCACCTAGTGCAG” here?
The binding signal was 4180 fluorescence intensity (a.u.).

“GAAGGCTGGCGTGGCACGTAGTTGCGTTTTGCCGTTTTGGCGGAGTCACCTAGTGCAG” was tested. Which binding signal did it give?
Its binding signal is 11800 fluorescence intensity (a.u.).

“ATCAAATCAGTCACACGTCACATTTGCAGTATAGAGTAGCCGGAGTCACCTAGTGCAG” was tested. Which binding signal did it give?
Its binding signal is 14500 fluorescence intensity (a.u.).

With “CCTTGAAAATGATACATTCTACTCATCAAACCCCAACAAACGGAGTCACCTAGTGCAG” as the sequence, how does the binding signal read?
The binding signal was 3500 fluorescence intensity (a.u.).

With “GCGTCGTCCTCGACTCCTCCGCCACCCGCCTGCTCCATCTCGGAGTCACCTAGTGCAG” as the sequence, how does the binding signal read?
Its binding signal is 36900 fluorescence intensity (a.u.).

“GATGTGACACATCCTAGTACAACGTCATATCTAACCTAAACGGAGTCACCTAGTGCAG” was tested. Which binding signal did it give?
Its binding signal is 4950 fluorescence intensity (a.u.).

For “AAAGGAGTTGCTAGCAGAGGTGAAATATCGTCATGTCGAACGGAGTCACCTAGTGCAG”, which binding signal is on record?
Its binding signal is 3200 fluorescence intensity (a.u.).

Which binding signal does the source give for “GTGGCACGGTTACAATTTTGTAAAATTTCAGTGTCATGGCCGGAGTCACCTAGTGCAG” here?
The binding signal was 3760 fluorescence intensity (a.u.).

For “ACAACACCCTTTTGTCTGCCAGCTCACCTCTTCAAACGTTCGGAGTCACCTAGTGCAG”, which binding signal is on record?
Its binding signal is 7320 fluorescence intensity (a.u.).

“GCACCGAAAGGCGAATCTAAGCGCGTCCAGCGTAAGCATCCGGAGTCACCTAGTGCAG” was tested. Which binding signal did it give?
The binding signal was 4920 fluorescence intensity (a.u.).

“CCGACATCCGACGGATAGGATAGTTGGATGATGATGTGGACGGAGTCACCTAGTGCAG” was tested. Which binding signal did it give?
Its binding signal is 8660 fluorescence intensity (a.u.).

For “CTGCAGATTCATTGTTACTAGTCTTAGTCATACTTGTTACCGGAGTCACCTAGTGCAG”, which binding signal is on record?
The binding signal was 3920 fluorescence intensity (a.u.).

How did the binding signal turn out when “CTTTTCGCCATTCAAGGAATTACCTCGTGGGCTATATGTACGGAGTCACCTAGTGCAG” was run?
The binding signal was 3330 fluorescence intensity (a.u.).

With “TTTGTAACTAAGCGGTGTCACTCCTCAAAGCTACACAAGCCGGAGTCACCTAGTGCAG” as the sequence, how does the binding signal read?
Its binding signal is 3550 fluorescence intensity (a.u.).

For “TATTGGGCTTGAGGTTTTGTGGCCCGTAAAGGGAGGGGTGCGGAGTCACCTAGTGCAG”, which binding signal is on record?
The binding signal was 3290 fluorescence intensity (a.u.).

For “AAATAAATAAAAGTCTTCTGCATTTTCCTGGTATATATTCCGGAGTCACCTAGTGCAG”, which binding signal is on record?
The binding signal was 8620 fluorescence intensity (a.u.).

Which binding signal does the source give for “ACGACCACTTCCGCGACGAGATCACCGTAGCGTTACAGCACGGAGTCACCTAGTGCAG” here?
The binding signal was 3150 fluorescence intensity (a.u.).

“AGCAGCTGCCTCAAGGTAATTCAGCACTCTGGTATTGGCACGGAGTCACCTAGTGCAG” was tested. Which binding signal did it give?
The binding signal was 22700 fluorescence intensity (a.u.).

For “GCCGCCGTCTCGCGCCGCCACCTCCGCCTCGCGCCGCCACCGGAGTCACCTAGTGCAG”, which binding signal is on record?
Its binding signal is 3350 fluorescence intensity (a.u.).

— PMC7819943, “Rice protein-binding microarrays: a tool to detect cis-acting elements near promoter regions in rice”
